Reference: PMC3669286
These are yes or no findings as the source states them, for the method shown. Binding seen in cells or lysates may run through a third protein. Some entries that bind do so weakly or less than the wild type.

By UniProt entry, the sequences of proteins in these tests, tags left out.
UniProt P84022: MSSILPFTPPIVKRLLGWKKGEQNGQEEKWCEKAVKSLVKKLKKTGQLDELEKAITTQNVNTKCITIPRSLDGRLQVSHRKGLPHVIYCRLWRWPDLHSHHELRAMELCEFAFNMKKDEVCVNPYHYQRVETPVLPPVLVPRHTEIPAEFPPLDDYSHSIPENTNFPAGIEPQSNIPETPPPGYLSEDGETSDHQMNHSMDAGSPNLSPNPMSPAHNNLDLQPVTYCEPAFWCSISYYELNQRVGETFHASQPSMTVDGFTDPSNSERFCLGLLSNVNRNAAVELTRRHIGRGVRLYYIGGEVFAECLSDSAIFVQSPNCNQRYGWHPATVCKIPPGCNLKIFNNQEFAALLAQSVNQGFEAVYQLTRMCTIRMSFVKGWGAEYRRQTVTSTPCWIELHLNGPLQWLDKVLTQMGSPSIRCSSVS

Target: Smad3 (ectopically expressed) (UniProt P84022)
Experiment: co-IP; HEK293T cells transfected with Smad3 and wild-type or mutant 14-3-3σ constructs, with TGFβ1 treatment and co-transfected constitutively active TβR-I; co-precipitated 14-3-3σ detected by blot; protein A-Sepharose, 6 hours at 4°C

| binding | Binder |
| --- | --- |
| binds | 14-3-3σ Ser69Ala mutant (protein, UniProt P31947 1-248) MERASLIQKAKLAEQAERYEDMAAFMKGAVEKGEELSCEERNLLSVAYKNVVGGQRAAWRVLSSIEQKANEEGSEEKGPEVREYREKVETELQGVCDTVLGLLDSHLIKEAGDAESRVFYLKMKGDYYRYLAEVATGDDKKRIIDSARSAYQEAMDISKKEMPPTNPIRLGLALNFSVFHYEIANSPEEAISLAKTTFDEAMADLHTLSEDSYKDSTLIMQLLRDNLTLWTADNAGEEGGEAPQEPQS |
| binds | 14-3-3σ Ser74Ala mutant (protein, UniProt P31947 1-248) MERASLIQKAKLAEQAERYEDMAAFMKGAVEKGEELSCEERNLLSVAYKNVVGGQRAAWRVLSSIEQKSNEEGAEEKGPEVREYREKVETELQGVCDTVLGLLDSHLIKEAGDAESRVFYLKMKGDYYRYLAEVATGDDKKRIIDSARSAYQEAMDISKKEMPPTNPIRLGLALNFSVFHYEIANSPEEAISLAKTTFDEAMADLHTLSEDSYKDSTLIMQLLRDNLTLWTADNAGEEGGEAPQEPQS |
| no binding | 14-3-3σ double Ser69/74Ala mutant (protein, UniProt P31947 1-248) MERASLIQKAKLAEQAERYEDMAAFMKGAVEKGEELSCEERNLLSVAYKNVVGGQRAAWRVLSSIEQKANEEGAEEKGPEVREYREKVETELQGVCDTVLGLLDSHLIKEAGDAESRVFYLKMKGDYYRYLAEVATGDDKKRIIDSARSAYQEAMDISKKEMPPTNPIRLGLALNFSVFHYEIANSPEEAISLAKTTFDEAMADLHTLSEDSYKDSTLIMQLLRDNLTLWTADNAGEEGGEAPQEPQS |
